PubChem BioAssay AID1259308 | NCATS – 2017
Here is a random part of about 59,000 deposited reagents. About 1,510 of all reagents (2.6%) count as active. 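Calls use total luciferase alone and ignore viability, so some active siRNAs may act by altering cell number.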 Entries without a mark were called inactive. Reagents against one gene are numbered here. Not all columns of the deposit are shown.

- Aim: 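Knock-downs that increase output of a recombinant reporter protein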 (primary screen)
- Cells: human HEK293 embryonic kidney cells stably expressing firefly luciferase (HEK-CMV-Luc2-Hygro)
- Reagent: single siRNA against human genes, 0.8 pmol siRNA per well
- Time to read-out: 72 h
- Measurement: 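Luciferase light (ONE-Glo) measured on one replicate plate set and viability (CellTiter-Glo) on the other, scaled to a negative control siRNA, with robust z-scores and luciferase per cell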
- Direction: total luciferase, z-score: higher = more reporter protein produced
- Rule for the call: 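An siRNA counts as active if its total luciferase robust z-score exceeds 3; genes with two or more such siRNAs out of three were retested with fresh siRNAs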
- Meaning of the calls: active = raised luciferase; inactive = no rise

ESPL1 #1 — total luciferase, z-score = -0.855
ESPL1 #2 — total luciferase, z-score = 0.961
ESPL1 #3 — total luciferase, z-score = -0.0497
DEFB132 #1 — total luciferase, z-score = 0.15
DEFB132 #2 — total luciferase, z-score = -0.678
DEFB132 #3 — total luciferase, z-score = -0.82
KIF21A #1 — total luciferase, z-score = -0.192
KIF21A #2 — total luciferase, z-score = -0.535
KIF21A #3 — total luciferase, z-score = 1.2
OS9 #1 — total luciferase, z-score = -0.364
OS9 #2 — total luciferase, z-score = 0.625
OS9 #3 — total luciferase, z-score = 2.36
UBN2 #1 — total luciferase, z-score = 0.337
UBN2 #2 — total luciferase, z-score = 0.416
UBN2 #3 — total luciferase, z-score = 2.53
CBX2 #1 — total luciferase, z-score = 2.48
CBX2 #2 — total luciferase, z-score = 1.05
CBX2 #3 — total luciferase, z-score = 0.263
PLD1 #1 — total luciferase, z-score = -0.236
PLD1 #2 — total luciferase, z-score = 0.43
PLD1 #3 — total luciferase, z-score = 2.19
TRA2A #1 — total luciferase, z-score = 0.6
TRA2A #2 — total luciferase, z-score = -0.314
TRA2A #3 — total luciferase, z-score = -0.527
CLLU1-AS1 #1 — total luciferase, z-score = -0.12
CLLU1-AS1 #2 — total luciferase, z-score = 2.21
CLLU1-AS1 #3 — total luciferase, z-score = -0.811
GRK5 #1 — total luciferase, z-score = 0.735
GRK5 #2 — total luciferase, z-score = 2.69
GRK5 #3 — total luciferase, z-score = -1.45
BCKDHA #1 — total luciferase, z-score = -0.584
BCKDHA #2 — total luciferase, z-score = -2.19
BCKDHA #3 — total luciferase, z-score = -0.573
NPY5R #1 — total luciferase, z-score = 0.803
NPY5R #2 — total luciferase, z-score = -0.636
NPY5R #3 — total luciferase, z-score = -0.209
B9D2 #1 — total luciferase, z-score = 0.0512
B9D2 #2 — total luciferase, z-score = -1.29
B9D2 #3 — total luciferase, z-score = 0.28
ZPBP #1 — total luciferase, z-score = -0.629
ZPBP #2 — total luciferase, z-score = -0.633
ZPBP #3 — total luciferase, z-score = 0.737

An excerpt taken from the entries so far:
PLD1 #2 — total luciferase, z-score = 0.43
PLD1 #3 — total luciferase, z-score = 2.19
TRA2A #1 — total luciferase, z-score = 0.6
TRA2A #2 — total luciferase, z-score = -0.314
TRA2A #3 — total luciferase, z-score = -0.527
CLLU1-AS1 #1 — total luciferase, z-score = -0.12
CLLU1-AS1 #2 — total luciferase, z-score = 2.21
